Publication doi:10.1101/2022.12.06.519343
No constants are given. Whether binding was seen depends on the method and setting. Some results given as binding are weak or reduced against the parent protein; the word gives no strength. Tags and fused reporters may be left off the sequences shown.

Biological target: T1, tag-free version of sExu531 (Drosophila melanogaster)
T1 chain: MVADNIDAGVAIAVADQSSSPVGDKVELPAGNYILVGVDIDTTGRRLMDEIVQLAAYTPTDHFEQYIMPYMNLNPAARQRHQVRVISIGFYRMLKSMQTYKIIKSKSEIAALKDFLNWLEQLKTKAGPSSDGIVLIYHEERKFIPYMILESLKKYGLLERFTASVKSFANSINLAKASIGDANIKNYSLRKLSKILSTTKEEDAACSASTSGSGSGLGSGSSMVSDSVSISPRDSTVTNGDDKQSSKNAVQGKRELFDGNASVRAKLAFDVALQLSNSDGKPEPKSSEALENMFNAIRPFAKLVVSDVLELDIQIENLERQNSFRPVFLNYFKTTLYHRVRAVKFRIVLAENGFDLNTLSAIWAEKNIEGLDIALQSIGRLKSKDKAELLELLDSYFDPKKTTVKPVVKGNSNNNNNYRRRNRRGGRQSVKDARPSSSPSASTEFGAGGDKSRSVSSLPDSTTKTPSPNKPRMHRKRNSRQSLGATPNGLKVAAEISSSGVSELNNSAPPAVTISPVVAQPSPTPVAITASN
Test: SEC
Conditions: remark: other sources report otherwise

B1: tag-free version of sExu531 (protein)
chain: MVADNIDAGVAIAVADQSSSPVGDKVELPAGNYILVGVDIDTTGRRLMDEIVQLAAYTPTDHFEQYIMPYMNLNPAARQRHQVRVISIGFYRMLKSMQTYKIIKSKSEIAALKDFLNWLEQLKTKAGPSSDGIVLIYHEERKFIPYMILESLKKYGLLERFTASVKSFANSINLAKASIGDANIKNYSLRKLSKILSTTKEEDAACSASTSGSGSGLGSGSSMVSDSVSISPRDSTVTNGDDKQSSKNAVQGKRELFDGNASVRAKLAFDVALQLSNSDGKPEPKSSEALENMFNAIRPFAKLVVSDVLELDIQIENLERQNSFRPVFLNYFKTTLYHRVRAVKFRIVLAENGFDLNTLSAIWAEKNIEGLDIALQSIGRLKSKDKAELLELLDSYFDPKKTTVKPVVKGNSNNNNNYRRRNRRGGRQSVKDARPSSSPSASTEFGAGGDKSRSVSSLPDSTTKTPSPNKPRMHRKRNSRQSLGATPNGLKVAAEISSSGVSELNNSAPPAVTISPVVAQPSPTPVAITASN
How did the binding turn out when B1 was run?
The binding was “binds”.
